Results are given in words; binding and its absence hold for the method and conditions named. For part of these data: Binding calls can cover weak binding; strength is not graded here.
Experiments:
Experiment in all cases: two-hybrid; AtNHX1 C-terminal 99 aa as bait (Gal4 binding domain, pDEST-GBKT7), AtCaM15 as prey (Gal4 activation domain, pDEST-GADT7); S. cerevisiae Y190; growth on SC-T/L/H with 25 mM 3-AT and X-gal staining (LacZ)
[1] = biological target: AtNHX1 C-terminal region (99 amino acids), sup1602 allele (Arabidopsis)
[2] = biological target: AtNHX1 C-terminal region (99 amino acids), sup908 allele (Arabidopsis)
[3] = biological target: AtNHX1 C-terminal region (99 amino acids), wild type (Arabidopsis)

binding [1]: no binding
binding [2]: no binding
binding [3]: binds
B1: AtCaM15 (protein, UniProt Q9M8U1 1-165)
chain: MSCDGGKPAPAKLGDEQLAELREIFRSFDQNKDGSLTELELGSLLRSLGLKPSQDQLDTLIQKADRNNNGLVEFSEFVALVEPDLVKCPYTDDQLKAIFRMFDRDGNGYITAAELAHSMAKLGHALTAEELTGMIKEADRDGDGCIDFQEFVQAITSAAFDNAWG
